Values quoted from earlier work, collected in US9211510B2, “Method for producing nanoparticles by forced ultrathin film rotary processing” (M. Technique Co., Ltd., priority 2007, dated 2015).

Conditions: by heating to a temperature of 70° C. or more

solubility in water: about 8 w/v %
SMILES: Nc1nc2c(ncn2COCCO)c(=O)[nH]1 [aciclovir]
